PubChem BioAssay AID504834 (National Center for Advancing Translational Sciences (NCATS), 2011)
“And” between values parts separate entries of the source, which are not always exact repeats. Equal values may be shown once. The whole screen tested about 320,000 compounds, of which about 22,000 (6.9%) were called active. The shares of active, inactive and inconclusive entries below differ from those in the screen. Calls come from the whole dose curve; as a rule, active = well fitted inhibition curve with a large enough effect; inconclusive = small, poorly fitted or top-dose-only effect, or another doubt; inactive = no such curve, though single readings can be large or run the other way. Potencies beside an inconclusive call are fits to weak or partial responses and may not hold up.

Experiment: Primary qHTS for delayed death inhibitors of the malarial parasite plastid, 96 hour incubation
Conditions: P. falciparum luciferase reporter growth; series mostly up to 28.7 µM; activity change, negative = inhibition: at the top concentration
In short: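 Infected RBCs, 2% Hct / 0.05% parasitemia final; luciferase-reporter P. falciparum; cpd 96 h, 37 C, 5% CO2; luciferase detection reagent; luminescence.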
% is set by controls: 0 for no effect and ±100 for the full control effect; potency is the fitted concentration of half-maximal effect.

SMILES | Potency | activity change, negative = inhibition
Cc1cc(OCC(=O)Nc2ccc(CN3CCOCC3)cc2)c2c(C)cc(=O)oc2c1 | inconclusive: 18.5 µM [inhibitor, single point] | –
Cc1ccc(-c2nnn(CC(=O)N(c3ccccc3)C(C(=O)NC(C)(C)C)c3cccs3)n2)o1 (configuration not stated) | inconclusive: 16.5 µM [inhibitor, single point] | –
COC(=O)CSc1nc2ccccc2n1CC(=O)N(C(C)C)C(C)C | inconclusive: 11.7 µM [inhibitor, partial curve, poor fit] | –
C/C(=N\NC(=O)CSc1nnc(C)s1)c1ccc(Cl)cc1 | inconclusive: 18.5 µM [inhibitor, single point] | –
COc1cc(NC(=O)COc2ccccc2[N+](=O)[O-])ccc1NC(=O)c1cccs1 | active: 11.7 µM | –
CCC1CCCCN1C(=O)COc1ccc(N(C)S(=O)(=O)c2ccc(C)cc2)cc1 (configuration not stated) | inconclusive: 10.4 µM [inhibitor, partial curve] | –
COc1cc(OC)c(N(C)S(=O)(=O)c2cccc(C(=O)OCc3c(C)noc3C)c2)cc1Cl | inconclusive: 3.29 µM [inhibitor, single point] | –
Cc1ccc(C)c(C(C)NC(=O)Cc2cccs2)c1 (configuration not stated) | – | inactive: -8.45%
CCOC(=O)c1ccccc1NC(=O)CSc1ncc(C(=O)OCC)c(N)n1 | – | inactive: 0.964%
Cc1ccc(CCNS(=O)(=O)c2cc(Br)cnc2N)cc1 | inconclusive: 0.657 µM [inhibitor, partial curve, poor fit] | –
CC(C)N1C(=S)SC(C)(C)C1n1oc(=O)n(-c2cccc(Cl)c2)c1=O (configuration not stated) | inconclusive: 11.7 µM [inhibitor, partial curve, poor fit] | –
CCCCCCN=C1CC(C)(C)CC(=O)/C1=C(/O)CCC | active: 6.57 µM | –
CCCN1CCC(=NNc2ccc(S(=O)(=O)N3CCOCC3)cc2[N+](=O)[O-])CC1 | inconclusive: 11.7 µM [inhibitor, single point] | –
CCCN(CCC)C(=O)Nc1cc(Cl)ccc1OC | inconclusive: 11.7 µM [inhibitor, single point] | –
CCCN1CCc2c(sc(NC(=O)Cc3ccc(F)cc3)c2C(N)=O)C1 | – | inactive: -10.9%
COC(=O)c1cc(C(=O)Nc2nnc(CC(C)C)s2)cc([N+](=O)[O-])c1 | inconclusive: 2.62 µM [inhibitor, full curve, poor fit] | –
Cc1ccc(NC(=O)c2cc(-c3ccccc3)nn2-c2ccccc2)c(Br)c1 | active: 11.7 µM | –
CC(=O)Oc1cccc(/C=C2\C=C(c3ccc(C)cc3)OC2=O)c1 | – | inactive: 1.43%
O=C(CNS(=O)(=O)c1cccs1)N1CCN(c2ccccc2F)CC1 | inconclusive: 10.4 µM [inhibitor, partial curve] | –
CCOC(=O)C(CCCCCCP(=O)(c1ccccc1)c1ccccc1)NC(C)=O (configuration not stated) | inconclusive: 0.233 µM [inhibitor, full curve, poor fit] | –
c1ccc(-n2c(-c3cccs3)nc3nc4ccccc4nc32)cc1 | inconclusive: 4.15 µM [inhibitor, partial curve] | –
N=c1c2c(-c3ccccc3)c(-c3ccccc3)n(Cc3ccccc3)c2ncn1CCO | inconclusive: 1.04 µM [inhibitor, full curve, poor fit] | –
COc1ccc(OC)c(S(=O)(=O)N2CCC(C(=O)NCc3cccnc3)CC2)c1 | inconclusive: 4.15 µM [inhibitor, partial curve, poor fit] | –
CCOc1ccccc1NC(=O)C1CCCCN1S(=O)(=O)c1ccccc1 (configuration not stated) | inconclusive: 11.7 µM [inhibitor, single point] | –

SMILES | Potency | activity change, negative = inhibition
NS(=O)(=O)c1cccc(NC(=O)c2cc3ccccc3o2)c1 | – | inactive: 56.5%
COc1ccc(S(=O)(=O)N2CCN(CC(=O)Nc3cc(OC)cc(OC)c3)CC2)cc1 | inconclusive: 9.28 µM [inhibitor, single point] | –
Cc1ccc(C)c(N2CCN(C(=O)c3ccc(Cn4c(=S)[nH]c5ccc(N6CCOCC6)cc5c4=O)cc3)CC2)c1 | active: 4.15 µM | –
Cc1ccc(-c2noc(-c3cccs3)n2)cc1 | inconclusive: 18.5 µM [inhibitor, single point] | –
O=C(CCC(=O)c1cccs1)NCCc1ccc(F)cc1 | – | inactive: -0.188%
COc1cc(NS(=O)(=O)c2ccc(F)cc2)c(C(=O)O)cc1OC | inconclusive: 1.47 µM [inhibitor, full curve] | –
CN1CCN(S(=O)(=O)Cc2ccccc2Cl)CC1 | – | inactive: -7.7%
O=[N+]([O-])c1ccc(-[n+]2ccc3ccccc3c2)c([N+](=O)[O-])c1 | inconclusive: 11.7 µM [inhibitor, single point] | –
CCN1C(=O)C(O)(CC(=O)c2c(C)coc2C)c2ccccc21 (configuration not stated) | – | inactive: -13%
O=C(NCc1nc(-c2ccccc2)cs1)c1ccccc1 | – | inactive: -21.1%
O=C(NCCc1ccc(Cl)cc1)C1CCCN1C(=O)NCc1ccccc1 (configuration not stated) | – | inactive: 34.6%
O=C(COC(=O)c1cc(S(=O)(=O)N2CCc3ccccc3C2)ccc1Cl)NCc1ccco1 | – | inactive: 24.9%
O=C(NCCSCc1ccccc1)c1ccc(C2SCC(=O)N2Cc2ccccc2)cc1 (configuration not stated) | active: 7.38 µM | –
Cc1ccc(S(=O)(=O)N2CCC(C(=O)N3CCCC(C(F)(F)F)C3)CC2)cc1C (configuration not stated) | inconclusive: 18.5 µM [inhibitor, single point] | –
Cc1nc(NCCOc2ccccc2)sc1C(=O)Nc1ccccc1 | – | inactive: 65.6%
Cc1ccc2[nH]c3c(c2c1)CCN(C)C3 | inconclusive: 18.5 µM [inhibitor, partial curve, poor fit] | –
CCn1nnc(-c2ccccc2NC(=O)C(F)(F)F)n1 | inconclusive: 11.7 µM [inhibitor, single point] | –
Cc1ccc(S(=O)(=O)Nc2cc3c(C(=O)Nc4ccccc4)c(C)oc3c3ccccc23)cc1 | active: 1.65 µM | –
O=C(O)Cn1c(SCCOc2ccccc2)nc2ccccc21 | active: 8.28 µM | –
O=C(Cc1c(F)cccc1Cl)Nc1ccccc1-c1ccccc1 | inconclusive: 13.1 µM [inhibitor, single point] | –
Cc1cc(C(=O)N=Nc2c(O)n(C)c3ccccc23)c(C)o1 | – | inactive: 161%
COc1ccc(CCNC(=O)CS(=O)Cc2nc(-c3cccs3)oc2C)cc1OC (configuration not stated) | active: 8.28 µM | –
CC(C)(C)OC(=O)N[C@H](C(=O)OC(C)(C)C)c1ccc(Br)cc1 | inconclusive: 16.5 µM [inhibitor, single point] | –

An excerpt of these results, comma-delimited.
SMILES,Potency,"activity change, negative = inhibition"
NS(=O)(=O)c1cccc(NC(=O)c2cc3ccccc3o2)c1,–,inactive: 56.5%
COc1ccc(S(=O)(=O)N2CCN(CC(=O)Nc3cc(OC)cc(OC)c3)CC2)cc1,"inconclusive: 9.28 µM [inhibitor, single point]",–
Cc1ccc(C)c(N2CCN(C(=O)c3ccc(Cn4c(=S)[nH]c5ccc(N6CCOCC6)cc5c4=O)cc3)CC2)c1,active: 4.15 µM,–
Cc1ccc(-c2noc(-c3cccs3)n2)cc1,"inconclusive: 18.5 µM [inhibitor, single point]",–
CN1CCN(S(=O)(=O)Cc2ccccc2Cl)CC1,–,inactive: -7.7%
O=[N+]([O-])c1ccc(-[n+]2ccc3ccccc3c2)c([N+](=O)[O-])c1,"inconclusive: 11.7 µM [inhibitor, single point]",–
CCN1C(=O)C(O)(CC(=O)c2c(C)coc2C)c2ccccc21 (configuration not stated),–,inactive: -13%
O=C(NCc1nc(-c2ccccc2)cs1)c1ccccc1,–,inactive: -21.1%
O=C(NCCc1ccc(Cl)cc1)C1CCCN1C(=O)NCc1ccccc1 (configuration not stated),–,inactive: 34.6%
O=C(COC(=O)c1cc(S(=O)(=O)N2CCc3ccccc3C2)ccc1Cl)NCc1ccco1,–,inactive: 24.9%
O=C(NCCSCc1ccccc1)c1ccc(C2SCC(=O)N2Cc2ccccc2)cc1 (configuration not stated),active: 7.38 µM,–
Cc1ccc2[nH]c3c(c2c1)CCN(C)C3,"inconclusive: 18.5 µM [inhibitor, partial curve, poor fit]",–
CCn1nnc(-c2ccccc2NC(=O)C(F)(F)F)n1,"inconclusive: 11.7 µM [inhibitor, single point]",–
Cc1ccc(S(=O)(=O)Nc2cc3c(C(=O)Nc4ccccc4)c(C)oc3c3ccccc23)cc1,active: 1.65 µM,–
O=C(O)Cn1c(SCCOc2ccccc2)nc2ccccc21,active: 8.28 µM,–
O=C(Cc1c(F)cccc1Cl)Nc1ccccc1-c1ccccc1,"inconclusive: 13.1 µM [inhibitor, single point]",–
Cc1cc(C(=O)N=Nc2c(O)n(C)c3ccccc23)c(C)o1,–,inactive: 161%
COc1ccc(CCNC(=O)CS(=O)Cc2nc(-c3cccs3)oc2C)cc1OC (configuration not stated),active: 8.28 µM,–
CC(C)(C)OC(=O)N[C@H](C(=O)OC(C)(C)C)c1ccc(Br)cc1,"inconclusive: 16.5 µM [inhibitor, single point]",–

Compounds from the list above that contain a tert-butyl group (two):
SMILES | Potency | activity change, negative = inhibition
Cc1ccc(-c2nnn(CC(=O)N(c3ccccc3)C(C(=O)NC(C)(C)C)c3cccs3)n2)o1 (configuration not stated) | inconclusive: 16.5 µM [inhibitor, single point] | –
CC(C)(C)OC(=O)N[C@H](C(=O)OC(C)(C)C)c1ccc(Br)cc1 | inconclusive: 16.5 µM [inhibitor, single point] | –

Later entries:

SMILES | Potency | activity change, negative = inhibition
O=C(Nc1ccc(F)cc1)c1ccc(S(=O)(=O)NCc2cccnc2)cc1 | – | inactive: 6.72%
CCc1nc(Cl)c(C#N)c2c1CCCC2 | inconclusive: 5.22 µM [inhibitor, partial curve, poor fit] | –
CC(=O)N1C(=O)C(=C2C=C(C)OC(C)=C2)c2ccccc21 | inconclusive: 16.5 µM [inhibitor, single point] | –
Cc1ccc(-n2c(SCC(=O)OC(C)C)nnc2-c2ccccn2)cc1 | inconclusive: 20.8 µM [inhibitor, partial curve, poor fit] | –
Cc1ccc2c(c1)N/C(=C(\C=C(/Cl)[N+](=O)[O-])[N+](=O)[O-])N2 | – | inactive: 34%
CC(Sc1nc2cc([N+](=O)[O-])ccc2n1-c1ccc(F)cc1)C(=O)NCc1ccc2c(c1)OCO2 (configuration not stated) | active: 1.65 µM | –
O=C(CCCn1cncn1)N1CCCC(N2CCN(c3ccccc3F)CC2)C1 (configuration not stated) | – | inactive: -100%
CCOc1ccccc1C(=O)NC(C(=O)Nc1cccc(S(N)(=O)=O)c1)C(C)C (configuration not stated) | – | inactive: -29.3%
CC(C)(C)C(=O)Nc1cc2c3c(c1)CCC(=O)N3CCC2 | – | inactive: 8.55%
COc1cccc(Cn2c(-c3cccs3)noc2=O)c1 | inconclusive: 18.5 µM [inhibitor, single point] | –
CCOC(=O)N1CCN(C(=O)CN(C2CCCCC2)S(=O)(=O)c2c(C)cc(C)cc2C)CC1 | active: 10.4 µM | –
COc1ccc2cc(C3NC(=O)c4ccccc4N3)c(Cl)nc2c1 (configuration not stated) | – | inactive: -19.9%
Cc1ccc(CN2C(=O)c3ccccc3NC2c2cc(Br)ccc2O)cc1 (configuration not stated) | inconclusive: 11.7 µM [inhibitor, single point] | –
CCOC(=O)c1c(C)[nH]c(C)c1C(=O)CSc1nc2ccccc2c(=O)n1-c1ccc(Cl)cc1 | active: 9.28 µM | –
O=C(Nc1ccc(C(F)(F)F)cc1-c1ccccc1)c1ccccc1 | – | inactive: -6.77%
Cc1cccc(/C=N/NC(=O)CN2CCCCCCC2)c1 | – | inactive: 37.5%
Cc1nc(Nc2ccccc2)sc1C(=O)c1ccc(F)cc1 | inconclusive: 10.4 µM [inhibitor, partial curve, poor fit] | –
COCCCn1c(=O)/c(=C\c2ccccc2OC(F)F)s/c1=C(/C#N)C(=O)N1CCOCC1 | inconclusive: 14.7 µM [inhibitor, single point] | –
O=C(CC1C(=O)NCCN1Cc1ccc(F)cc1)NCCCn1cccn1 (configuration not stated) | – | inactive: 4.01%
CCCc1nnc(NC(=O)CCC(=O)NCCc2ccc(Cl)cc2)s1 | inconclusive: 11.7 µM [inhibitor, single point] | –
CSc1ccccc1OCc1cc(C(=O)N2CCN3CCCC3C2)no1 (configuration not stated) | inconclusive: 2.94 µM [inhibitor, partial curve, poor fit] | –
O=C(CSc1ccccc1)NCC(c1ccco1)N1CCCCC1 (configuration not stated) | inconclusive: 18.5 µM [inhibitor, single point] | –
COc1cccc(/C=N/NC(=O)c2csc(-n3nc(C)cc3C(F)(F)F)n2)c1 | inconclusive: 10.4 µM [inhibitor, single point] | –
Cc1ccc(C)c(NC(=O)NCCN2CCCCC2)c1 | inconclusive: 9.28 µM [inhibitor, partial curve, poor fit] | –
